# Results from PubChem BioAssay AID1671190 (National Center for Advancing Translational Sciences (NCATS), 2021).
# Sequences of proteins named here, by UniProt entry; tags and fusion partners are left off.
# UniProt P18054, whole entry, looked up: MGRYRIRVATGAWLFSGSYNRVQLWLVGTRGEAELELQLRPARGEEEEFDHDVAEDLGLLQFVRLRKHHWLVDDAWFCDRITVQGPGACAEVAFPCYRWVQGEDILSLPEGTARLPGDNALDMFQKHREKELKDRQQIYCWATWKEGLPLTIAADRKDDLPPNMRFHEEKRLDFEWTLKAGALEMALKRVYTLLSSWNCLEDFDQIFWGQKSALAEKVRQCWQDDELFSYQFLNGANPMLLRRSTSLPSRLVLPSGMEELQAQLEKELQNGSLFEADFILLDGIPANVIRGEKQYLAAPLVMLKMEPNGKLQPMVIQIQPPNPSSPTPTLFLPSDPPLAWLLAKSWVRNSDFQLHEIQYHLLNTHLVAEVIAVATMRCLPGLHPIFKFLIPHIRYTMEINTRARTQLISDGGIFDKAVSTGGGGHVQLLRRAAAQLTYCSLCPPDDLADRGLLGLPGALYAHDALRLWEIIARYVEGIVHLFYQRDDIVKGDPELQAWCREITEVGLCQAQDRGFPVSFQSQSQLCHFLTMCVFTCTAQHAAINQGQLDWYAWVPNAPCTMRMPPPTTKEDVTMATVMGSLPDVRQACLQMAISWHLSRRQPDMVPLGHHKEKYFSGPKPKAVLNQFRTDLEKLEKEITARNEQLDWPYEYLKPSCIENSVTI
# The campaign covered roughly 580,000 compounds. About 6,100 (1.1%) were called active. The shares of active, inactive and inconclusive entries below differ from those in the screen. Calls come from the whole dose curve; as a rule, active = well fitted inhibition curve with a large enough effect; inconclusive = small, poorly fitted or top-dose-only effect, or another doubt; inactive = no such curve, though single readings can be large or run the other way. Where the call is inconclusive, the potency comes from a doubtful curve fit.
# Molecular target: Polyunsaturated fatty acid lipoxygenase ALOX12 (Homo sapiens) (UniProt P18054)
# Test: Primary qHTS assay for inhibitors of human arachidonate 12S-lipoxygenase (ALOX12): Round 2
# Details: purified 12hLO, xylenol orange hydroperoxide absorbance; activity change, negative = inhibition: at 108 µM (top of the series) unless noted
# Outline: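 Hydroperoxide product was detected by ferrous iron/xylenol orange as the 573 to 405 nm absorbance ratio. Arachidonic acid at 40 uM (final) was turned over for 30 min at room temperature by 150 nM human 12hLO, pH 7.0 Hepes buffer, after 15 min compound preincubation.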
# % is set by controls: 0 for no effect and ±100 for the full control effect; potency is the fitted concentration of half-maximal effect.
Compound,Potency,"activity change, negative = inhibition"
O=C(C=CC#Cc1cccc(NS(=O)(=O)c2ccccc2)c1)NO,"inconclusive: 27.3 µM [inhibitor, partial curve, poor fit]",
Cc1ccc(Nc2nc(-c3ccncc3)cs2)cc1C,"inconclusive: 100 µM [inhibitor, single point]",
O=C(c1ccsc1)N1CCC(N2C(=O)C(O)C23CCCCC3)CC1 (stereo not given),inactive,
Cc1cnc(CNc2ncncc2-c2ccccc2CN(C)C)cn1,"inconclusive: 39.8 µM [inhibitor, partial curve, poor fit]",
CC[C@H](CO)Nc1nc(Nc2cccc(Cl)c2)c2ncn(C(C)C)c2n1,inactive,
COc1ccc(C)cc1NC(=O)CC(=O)Nc1ccc2nc3n(c(=O)c2c1)CCCCC3,"inconclusive: 28.2 µM [inhibitor, partial curve, poor fit]",
CC1(C)NC(=O)N(CC(O)CN(Cc2ccccc2)Cc2ccccc2)C1=O (stereo not given),,inconclusive: -36.7% [inhibitor]
COc1ccc(-c2cc(C(=O)Nc3ccc(C(N)=O)cc3)c3ccccc3n2)cc1OC,"inconclusive: 50.1 µM [inhibitor, partial curve, poor fit]",
O=C(NCc1ccccc1)c1cc(S(=O)(=O)N2CCOCC2)ccc1F,"inconclusive: 28.2 µM [inhibitor, single point]",
COc1cc(N=Nc2ccc(C)cc2S(N)(=O)=O)c(C)cc1N,"inconclusive: 17.8 µM [inhibitor, partial curve]",
CC[C@@]1(O)C[C@H](O[C@H]2C[C@H](N(C)C)[C@H](O[C@H]3C[C@H](O)[C@H](O[C@H]4CCC(=O)[C@H](C)O4)[C@H](C)O3)[C@H](C)O2)c2c(cc3c(c2O)C(=O)c2c(O)cccc2C3=O)[C@@H]1C(=O)OC,"inconclusive: 1.37 µM [inhibitor, full curve]",
Cn1c(CCCNC(=O)c2ccccc2)nc2ccccc21,inactive,
CC1(C)Cc2c(c(N3CCOCC3)nc3sc(C(=O)Nc4cccc5ccccc45)c(N)c23)CO1,"inconclusive: 28.2 µM [inhibitor, partial curve, poor fit]",
CSc1cccc(CN2CCC(CO)(Cc3cccc(C(F)(F)F)c3)CC2)c1,"inconclusive: 50.1 µM [inhibitor, partial curve, poor fit]",
COc1ccc(CNc2ncnc3ccc(-c4ccc5c(c4)OCO5)cc23)c(OC)c1,"inconclusive: 17.8 µM [inhibitor, partial curve, poor fit]",
CCCCCCCCN1C(=O)[C@H](CC(=O)N2CCN(C(=O)c3ccco3)CC2)C[C@@]2(C(=O)OC)CC(C)(C)CC=C12,"inconclusive: 50.1 µM [inhibitor, partial curve, poor fit]",
O=C(Nc1ccc(N2CCOCC2)cc1)C1CCN(S(=O)(=O)c2cccc(C(F)(F)F)c2)CC1,"inconclusive: 44.7 µM [inhibitor, partial curve, poor fit]",
O=C(c1ccc(S(=O)(=O)Cc2cc(F)ccc2F)c([N+](=O)[O-])c1)N1CCCCC1,inactive,
N#CCSc1nc2sc3c(c2c(=O)n1C1CCCCC1)CCCC3,"inconclusive: 0.224 µM [inhibitor, single point]",
ClCC1NCC(c2ccccc2Cl)c2c1[nH]c1ccccc21 (stereo not given),"inconclusive: 50.1 µM [inhibitor, partial curve, poor fit]",
CCOc1ccc(S(=O)(=O)N(C(=O)c2ccncc2)c2ccc3oc(C)c(C(=O)OC)c3c2)cc1,inactive,
COc1ccc(-c2noc(CC3CCN(C(=O)c4ccc(OC)cc4OC)CC3)n2)cc1,inactive,

# Ordered by molecular weight (rising): three of the compounds above
Compound,Potency,"activity change, negative = inhibition"
Cc1ccc(Nc2nc(-c3ccncc3)cs2)cc1C,"inconclusive: 100 µM [inhibitor, single point]",
O=C(c1ccsc1)N1CCC(N2C(=O)C(O)C23CCCCC3)CC1 (stereo not given),inactive,
CC[C@H](CO)Nc1nc(Nc2cccc(Cl)c2)c2ncn(C(C)C)c2n1,inactive,

# The list continues:

Compound,Potency,"activity change, negative = inhibition"
O=S(=O)(Nc1ccc(-n2cccc2)cc1)c1ccc(Cl)c(Cl)c1,"inconclusive: 89.1 µM [inhibitor, partial curve, poor fit]",
O=C1NCc2ccccc2CC12CCCN(Cc1ccc(O)cc1)C2 (stereo not given),,inactive: -2.31% [at 6.33 µM]
Cc1cc(C)c(S(=O)(=O)NCCc2ccccc2)c(C)c1,"inconclusive: 89.1 µM [inhibitor, single point]",
COc1cccc(-c2cc(C(=O)Nc3nc4ccccc4s3)c3ccccc3n2)c1,"inconclusive: 50.1 µM [inhibitor, partial curve, poor fit]",
CCOC(=O)c1c(NS(=O)(=O)Cc2ccccc2)sc2c1CCCC2,"inconclusive: 70.8 µM [inhibitor, partial curve, poor fit]",
CCOP(=O)(OCC)c1nc(-c2ccc(Cl)cc2)oc1NCc1ccco1,"inconclusive: 56.2 µM [inhibitor, partial curve, poor fit]",
O=C(NCCc1ccccn1)c1ccc(OC2CCNCC2)nc1,"inconclusive: 14.1 µM [inhibitor, full curve, poor fit]",
CC1=Nc2ccc(C)c3nc(C)cc(c23)N1c1ccc(C)cc1,"inconclusive: 35.5 µM [inhibitor, partial curve, poor fit]",
CC(C)CSc1oc(-c2ccco2)nc1S(=O)(=O)c1ccc(Br)cc1,"inconclusive: 100 µM [inhibitor, single point]",
C=CCSC1=N/C(=C\C=C\c2ccccc2)C(=O)S1,active: 14.1 µM,
Cc1nc2c(C(=O)NCCC(C)C)c[nH]n2c(=O)c1Cl,"inconclusive: 6.31 µM [inhibitor, full curve]",
O=C(Cc1c[nH]c2ccccc12)Nc1ccccc1Cl,"inconclusive: 112 µM [inhibitor, single point]",
CS(=O)(=O)N1CCC(Oc2ccccc2C(=O)N2CCCCC2CO)CC1 (stereo not given),"inconclusive: 56.2 µM [inhibitor, single point]",
CCn1nc(C(=O)OCC(=O)Nc2ccc(Cl)c(C(F)(F)F)c2)c2ccccc2c1=O,"inconclusive: 10 µM [inhibitor, partial curve, poor fit]",
CCCCNC(=O)c1cccc(C(=O)NCCCC)n1,inactive,
CCOc1ccc(C(C)=O)cc1COc1ccc2c(CC)cc(=O)oc2c1,"inconclusive: 35.5 µM [inhibitor, partial curve, poor fit]",
COc1ccc2sc(N(CCCN(C)C)C(=O)c3ccc(C(=O)c4ccccc4)cc3)nc2c1,"inconclusive: 50.1 µM [inhibitor, partial curve, poor fit]",
COc1ccc(CCNC(=O)CSc2ccc3nnc(CCNC(=O)c4ccc(C)cc4)n3n2)cc1OC,inactive,
CC(C)NC(=S)N/N=C/c1cccnc1,"inconclusive: 44.7 µM [inhibitor, partial curve, poor fit]",
O=C(NN1CCN(C(c2ccccc2)c2ccccc2)CC1)c1ccc(F)cc1Cl,"inconclusive: 70.8 µM [inhibitor, single point]",
CCOc1ccc(NC(=S)Nc2cc(OC)c(Cl)cc2OC)cc1,active: 39.8 µM,
O=C(COC(=O)c1ccc([N+](=O)[O-])o1)NCc1ccccc1,inactive,

Compound,Potency,"activity change, negative = inhibition"
CCOC(=O)CCCCC(=O)c1[nH]c(=O)[nH]c1CN1CCOCC1,inactive,
COc1ccc(C(=O)N2CCC3(C2)C(=NC2CCCC2)NC(=O)N3c2cc(F)cc(F)c2)cc1 (stereo not given),,inactive: 6.74% [at 6.33 µM]
Cc1cc(C(=O)N2CCCCC2c2noc(COc3ccc(F)cc3)n2)n[nH]1 (stereo not given),inactive,
COc1ccc2c(ccc[n+]2[O-])c1,inactive,
Cc1cc2oc(=O)cc(COC(=O)Cc3n[nH]c(=O)c4ccccc34)c2cc1C(C)C,"inconclusive: 79.4 µM [inhibitor, partial curve, poor fit]",
Cc1nn(-c2cccc(Cl)c2)c2c1C(c1ccncc1)C(C#N)=C(N)O2 (stereo not given),"inconclusive: 56.2 µM [inhibitor, partial curve, poor fit]",
O=C(CCc1ccccc1)c1c(O)cc(O)cc1O,"inconclusive: 100 µM [inhibitor, single point]",
O=C(NCc1ccc2c(c1)OCO2)C1CN(c2ccc(F)cc2)C(=O)N1 (stereo not given),inactive,
COc1ccc(CNC(=O)c2cc(C)nc3c2c(C)nn3-c2cccc(Cl)c2C)cc1,"inconclusive: 141 µM [inhibitor, partial curve, poor fit]",
COc1cccc(Nc2nc(Nc3ccc(Cl)c(C(=O)O)c3)nc(C)c2[N+](=O)[O-])c1,"inconclusive: 56.2 µM [inhibitor, partial curve, poor fit]",
Cc1ccc(Nc2n[nH]c(=S)s2)c(C)c1,active: 25.1 µM,
Cc1ccccc1Nc1nc(N)nc(COC(=O)c2ccccc2)n1,"inconclusive: 1.26 µM [inhibitor, full curve, poor fit]",
O=c1oc2cc(O)ccc2cc1-c1nc2ccccc2o1,"inconclusive: 31.6 µM [inhibitor, partial curve]",
O=C(c1cc(COc2ccc(F)cc2Cl)on1)N1CCC(c2ccncc2)CC1,"inconclusive: 112 µM [inhibitor, single point]",
CCC(CC)C(=O)O,inactive,
COc1ccc(CN2CCOCCOCCN(Cc3ccc(OC)cc3)CCOCCOCC2)cc1,inactive,
O=C(O)CN1C(=O)/C(=C2\C(=O)N(Cc3ccccc3Cl)c3ccccc32)SC1=S,inactive,
CC(C)N1C[C@H](O)C[C@H]1c1nnc2n1CCN(C(=O)CCc1nc3ccccc3s1)C2,"inconclusive: 12.6 µM [inhibitor, partial curve, poor fit]",
Cn1cnc(S(=O)(=O)N2CCC(CC(=O)NCc3ccccc3)C2)c1 (stereo not given),inactive,
Cc1oc(-c2ccccc2)nc1C(=O)Nc1ccc(F)c(C(N)=O)c1,"inconclusive: 0.398 µM [inhibitor, full curve, poor fit]",
CN(C)CC1(COc2cccnc2)C[C@@H](O)[C@@H](O)C1 (stereo not given in full),"inconclusive: 10 µM [inhibitor, full curve, poor fit]",
